Measurements reported in PubChem BioAssay AID1508597 (Cure First, 2020)

- Test: 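Survival screen with siRNA in ovarian cancer cells derived from patients, with or without rucaparib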 (primary screen)
- System: human ovarian carcinoma lines grown from tumours: OCI-P5x (papillary serous) and OCI-C5x (clear cell)
- Reagents: siRNA pool against human genes, 1.25 pmol siRNA per well
- Duration: 72 h or 96 h, depending on the cell culture
- Treatment: rucaparib 20 µM (about IC30) or vehicle, present until read-out
- Read-out: 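ATP luminescence measured at 72 or 96 h according to the culture, then normalised and expressed as percent viability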
- Direction: viability, normalised: higher = more viable cells remaining
- Call rule: 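a well counts as a hit if its normalised viability is under 80 percent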
- Calls: active = viability under 80%; inactive = viability 80% or more
In all, the deposit lists about 2,100 reagents; shown is a part drawn at random. 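Calls flag viability under 80% in either arm, not effects specific to rucaparib; the reference for percent is not stated.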 Not given: the 100% reference.

no.	gene	rucaparib or vehicle	cell line	technical replicate	viability, normalised (%)	Outcome
1	IRAK4 (interleukin 1 receptor associated kinase 4)	Rucaparib	OCI-C5x (clear cell)	1	57	active
2	IRAK4 (interleukin 1 receptor associated kinase 4)	Rucaparib	OCI-C5x (clear cell)	2	64.9	active
3	IRAK4 (interleukin 1 receptor associated kinase 4)	Rucaparib	OCI-C5x (clear cell)	3	53	active
4	IRAK4 (interleukin 1 receptor associated kinase 4)	Rucaparib	OCI-P5x (serous)	1	86.9	inactive
5	IRAK4 (interleukin 1 receptor associated kinase 4)	Rucaparib	OCI-P5x (serous)	2	72.4	active
6	IRAK4 (interleukin 1 receptor associated kinase 4)	Rucaparib	OCI-P5x (serous)	3	50.4	active
7	IRAK4 (interleukin 1 receptor associated kinase 4)	Vehicle	OCI-C5x (clear cell)	1	67.4	active
8	IRAK4 (interleukin 1 receptor associated kinase 4)	Vehicle	OCI-C5x (clear cell)	2	74.4	active
9	IRAK4 (interleukin 1 receptor associated kinase 4)	Vehicle	OCI-C5x (clear cell)	3	60.3	active
10	IRAK4 (interleukin 1 receptor associated kinase 4)	Vehicle	OCI-P5x (serous)	1	73.6	active
11	IRAK4 (interleukin 1 receptor associated kinase 4)	Vehicle	OCI-P5x (serous)	2	56.5	active
12	IRAK4 (interleukin 1 receptor associated kinase 4)	Vehicle	OCI-P5x (serous)	3	53.8	active
13	EYA3 (EYA transcriptional coactivator and phosphatase 3)	Rucaparib	OCI-C5x (clear cell)	1	51	active
14	EYA3 (EYA transcriptional coactivator and phosphatase 3)	Rucaparib	OCI-C5x (clear cell)	2	29.9	active
15	EYA3 (EYA transcriptional coactivator and phosphatase 3)	Rucaparib	OCI-C5x (clear cell)	3	28.1	active
16	EYA3 (EYA transcriptional coactivator and phosphatase 3)	Rucaparib	OCI-P5x (serous)	1	48.4	active
17	EYA3 (EYA transcriptional coactivator and phosphatase 3)	Rucaparib	OCI-P5x (serous)	2	51.5	active
18	EYA3 (EYA transcriptional coactivator and phosphatase 3)	Rucaparib	OCI-P5x (serous)	3	51.4	active
19	EYA3 (EYA transcriptional coactivator and phosphatase 3)	Vehicle	OCI-C5x (clear cell)	1	52.4	active
20	EYA3 (EYA transcriptional coactivator and phosphatase 3)	Vehicle	OCI-C5x (clear cell)	2	42.2	active
21	EYA3 (EYA transcriptional coactivator and phosphatase 3)	Vehicle	OCI-C5x (clear cell)	3	60.8	active
22	EYA3 (EYA transcriptional coactivator and phosphatase 3)	Vehicle	OCI-P5x (serous)	1	49.5	active
23	EYA3 (EYA transcriptional coactivator and phosphatase 3)	Vehicle	OCI-P5x (serous)	2	51.5	active
24	EYA3 (EYA transcriptional coactivator and phosphatase 3)	Vehicle	OCI-P5x (serous)	3	56	active

A stretch taken from the entries so far, as a working copy:
no.	gene	rucaparib or vehicle	cell line	technical replicate	viability, normalised (%)	Outcome
3	IRAK4 (interleukin 1 receptor associated kinase 4)	Rucaparib	OCI-C5x (clear cell)	3	53	active
4	IRAK4 (interleukin 1 receptor associated kinase 4)	Rucaparib	OCI-P5x (serous)	1	86.9	inactive
5	IRAK4 (interleukin 1 receptor associated kinase 4)	Rucaparib	OCI-P5x (serous)	2	72.4	active
6	IRAK4 (interleukin 1 receptor associated kinase 4)	Rucaparib	OCI-P5x (serous)	3	50.4	active
